Data on two molecules can be found in article PMC9986243.

For the test, the target named is T1, Myc-1-186aa of PHF2 (truncation containing PHD domain) (human) (UniProt O75151).
T1 sequence: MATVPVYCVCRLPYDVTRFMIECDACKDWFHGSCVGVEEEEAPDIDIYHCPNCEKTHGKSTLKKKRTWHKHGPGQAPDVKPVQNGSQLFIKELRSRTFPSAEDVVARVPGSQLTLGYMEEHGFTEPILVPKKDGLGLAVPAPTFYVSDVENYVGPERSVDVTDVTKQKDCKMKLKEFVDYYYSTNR
The test can be described thus: co-IP; 293T cells co-transfected with a Myc-tagged and a Flag-tagged construct; whole-cell lysate; anti-Flag, anti-Myc or anti-IgG immunoprecipitates, protein A agarose, 4 °C; immunoblot.

Results are given in words; binding and its absence hold for the method and conditions named. In cells and extracts the contact can be indirect. Some binding calls cover weakened binding; strength is not graded here. Sequences can lack the tags named with a protein.

B1: Flag-353-1096aa of PHF2, WT (domain or fragment, UniProt O75151 353-1096)
chain: RRLKLGSLTQFPNFETACWYMGKHLLEAFKGSHKSGKQLPPHLVQGAKILNGAFRSWTKKQALAEHEDELPEHFKPSQLIKDLAKEIRLSENASKAVRPEVNTVASSDEVCDGDREKEEPPSPIEATPPQSLLEKVSKKKTPKTVKMPKPSKIPKPPKPPKPPRPPKTLKLKDGGKKKGKKSRESASPTIPNLDLLEAHTKEALTKMEPPKKGKATKSVLSVPNKDVVHMQNDVERLEIREQTKSKSEAKWKYKNSKPDSLLKMEEEQKLEKSPLAGNKDNKFSFSFSNKKLLGSKALRPPTSPGVFGALQNFKEDKPKPVRDEYEYVSDDGELKIDEFPIRRKKNAPKRDLSFLLDKKAVLPTPVTKPKLDSAAYKSDDSSDEGSLHIDTDTKPGRNARVKKESGSSAAGILDLLQASEEVGALEYNPSSQPPASPSTQEAIQGMLSMANLQASDSCLQTTWGAGQAKGSSLAAHGARKNGGGSGKSAGKRLLKRAAKNSVDLDDYEEEQDHLDACFKDSDYVYPSLESDEDNPIFKSRSKKRKGSDDAPYSPTARVGPSVPRQDRPVREGTRVASIETGLAAAAAKLSQQEEQKSKKKKSAKRKLTPNTTSPSTSTSISAGTTSTSTTPASTTPASTTPASTSTASSQASQEGSSPEPPPESHSSSLADHEYTAAGTFTGAQAGRTSQPMAPGVFLTQRRPSASSPNNNTAAKGKRTKKGMATAKQRLGKILKIHRNGKLLL
Take B1: the binding entry is recorded as “binds”.

B2: Flag-353-1096aa of PHF2, S655A (domain or fragment, UniProt O75151 353-1096)
chain: RRLKLGSLTQFPNFETACWYMGKHLLEAFKGSHKSGKQLPPHLVQGAKILNGAFRSWTKKQALAEHEDELPEHFKPSQLIKDLAKEIRLSENASKAVRPEVNTVASSDEVCDGDREKEEPPSPIEATPPQSLLEKVSKKKTPKTVKMPKPSKIPKPPKPPKPPRPPKTLKLKDGGKKKGKKSRESASPTIPNLDLLEAHTKEALTKMEPPKKGKATKSVLSVPNKDVVHMQNDVERLEIREQTKSKSEAKWKYKNSKPDSLLKMEEEQKLEKSPLAGNKDNKFSFSFSNKKLLGSKALRPPTAPGVFGALQNFKEDKPKPVRDEYEYVSDDGELKIDEFPIRRKKNAPKRDLSFLLDKKAVLPTPVTKPKLDSAAYKSDDSSDEGSLHIDTDTKPGRNARVKKESGSSAAGILDLLQASEEVGALEYNPSSQPPASPSTQEAIQGMLSMANLQASDSCLQTTWGAGQAKGSSLAAHGARKNGGGSGKSAGKRLLKRAAKNSVDLDDYEEEQDHLDACFKDSDYVYPSLESDEDNPIFKSRSKKRKGSDDAPYSPTARVGPSVPRQDRPVREGTRVASIETGLAAAAAKLSQQEEQKSKKKKSAKRKLTPNTTSPSTSTSISAGTTSTSTTPASTTPASTTPASTSTASSQASQEGSSPEPPPESHSSSLADHEYTAAGTFTGAQAGRTSQPMAPGVFLTQRRPSASSPNNNTAAKGKRTKKGMATAKQRLGKILKIHRNGKLLL
Take B2: the binding result was “binds”.
